# According to patent publication US20090258005A1:
# Results are given in words; binding and its absence hold for the method and conditions named. Some results given as binding are weak or reduced against the parent protein; the word gives no strength.
# B1: S1R3A1_CS_1B9 (scFv, V domains shown)
# VH: KVQLVQSGTEVKKPGESLKISCQGSGYRFSSDWIAWVRQMPGKGLEWMGIVYPGDSDTRYSPSFQGQVTISADKSISTAYLQWSGLKASDTAKYYCARVQQAVGAKGYAMDVWGKGTLVTVSS
# VL: QTVVIQEPSFSVSPGGTVTLTCGLSSGSVSTSYYPSWYRQTPGQAPHTLIHNTKIRSSGVPDRFSGSILGNNAALTITGAQADDESDYYCLLYMGSGIYVFGGGTKLTVL
# B2: S1R3A1_CS_1B10 (scFv, V domains shown)
# VH: EVQLVQSGAEVKKPGASVRVSCKGSGNTFTGHYIHWVRQAPGQGLEWLGWIDPNTGDIQYSENFKGSVTLTRDPSINSVFMDLIRLTSDDTAMYYCAREGAGLANYYYYGLDVWGRGTMVTVSS
# VL: QTVVLQEPSFSVSPGGTVTLTCGLNFGSVSTAYYPSWYQQTPGQAPRTLIYGTNIRSSGVPDRFSGSIVGNKAALTITGAQTEDESDYYCALYMGSGMLFGGGTKVTVL
# B3: S1R3B1_BMV_1H11 (scFv, V domains shown)
# VH: EVQLVQSGGGLVKPGGSLRLSCAASGFTFSSYGMHWVRQAPGKGLEWVAGIFYDGGNKYYADSVKGRFTISRDNSKNTLYLQMNSLRAEDTAVYYCARDRGYYYMDVWGKGTTVTVSS
# VL: QSVLTQPPSVSGAPGQRVTISCTGRSSNIGAGHDVHWYQQLPGTAPKLLIYGDSNRPSGVPDRFSGSRSGTSASLAITGLQAEDEADYYCQSYDSSLRGSVFGGGTKVTVL
# Columns and labels:
# L1-CR1 (Her054P) = assay: ELISA, soluble scFv on L1-CR1
# [1] = target: Her008P, full-length extracellular domain (ECD) of Her2 expressed with a mIgG2a Fc tail (human; murine) (UniProt P04626); assay: ELISA, soluble scFv on ECD
# EQR (Her017P) = assay: ELISA, soluble scFv on EQR
# [2] = target: Her018P, Her2 ECD with a deletion in the CR2 (Domain IV) region expressed with a mIgG2a Fc tail (human; murine) (UniProt P04626); assay: ELISA, soluble scFv on Her018
# [3] = target: ECD region of Her2 (human) (UniProt P04626); assay: screening after three rounds of phage selection, soluble periplasmic scFv
binding (L1-CR1 (Her054P)),binding [1],binding (EQR (Her017P)),binding [2],binding [3],Binder
binds,–,–,–,–,B1
binds,–,–,–,–,B2
binds,binds,binds,binds,binds,B3
